{
  "source": "patent US20240059738A1",
  "about": "“SWITCHING PEPTIDE AND MULTIPLEX IMMUNOASSAY METHOD USING SAME” (OPTOLANE TECHNOLOGIES INC., priority 2021, published 2024)",
  "tested_on": "carcinoembryonic antigen (CEA)",
  "experiment": "One-step immunoassay of carcinoembryonic antigen using L1 peptide (FIGS. 9A-9B)",
  "data": [
    {"sequence": "TYLEWYPQKPGQSPKLLIYK [L1, TYLEW YPQKP GQSPK LLIYK]", "values": [
      {"measurement": "limit of detection (LOD)", "setting": "fluorescence measured from transferred solution", "result": 34.7, "unit": "ng/mL"},
      {"measurement": "limit of detection (LOD)", "setting": "fluorescence measured in microplate well state", "result": "about 33.6 ng/ml"}
    ]}
  ]
}
